The results in this text go back to publication PMC7819943, “Rice protein-binding microarrays: a tool to detect cis-acting elements near promoter regions in rice”.

Chains of the proteins cited; added tags and fusions are not shown.
UniProt Q0JBA9, entry or part of it: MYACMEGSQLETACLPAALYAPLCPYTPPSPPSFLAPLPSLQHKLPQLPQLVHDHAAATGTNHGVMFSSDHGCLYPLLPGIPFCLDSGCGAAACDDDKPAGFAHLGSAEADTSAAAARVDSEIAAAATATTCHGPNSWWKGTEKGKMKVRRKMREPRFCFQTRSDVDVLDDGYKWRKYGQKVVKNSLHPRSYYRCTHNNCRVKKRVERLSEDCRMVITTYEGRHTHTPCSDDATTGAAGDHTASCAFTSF

Some of the results follow.

The target of this test is OsWRKY34 (Oryza sativa, UniProt Q0JBA9 1-250). In words: protein-binding microarray (RPBM); PBS, 2% BSA, 51.3 ng/ul salmon testes DNA, 50 uM zinc acetate, 200 nM TF, 25 C, 1 h; high values mean tight binding. Conditions: protein: recombinant; tags: N-terminal polyhistidine and DsRed monomer fusion (pET32a); label: CyDye5-dUTP incorporated in the synthesized complementary strand; 3' TTTTT single-stranded linker to array surface; dsDNA, one strand shown. The essentials:
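Using Ni–NTA, transcription factors fused N-terminally to polyhistidine and DsRed were purified after expression in E. coli BL21-CodonPlus. These were incubated at 200 nM with a blocked, double-stranded custom Agilent array for 1 h at 25 °C in a buffer containing 50 µM zinc acetate, and the array was washed. The binding signal is per-feature fluorescence intensity (arbitrary units) on an Axon 4000B scanner.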
As to “ACGTTTTTTATAGGTGAGGGTGGGAGGTGTTTTATATATACGGAGTCACCTAGTGCAG”, the binding signal was 16300 fluorescence intensity (a.u.).

In the case of “GGATATATTTTTCACCCTCAGTGATATTCTCTCTTTTTTACGGAGTCACCTAGTGCAG”, the binding signal is 8150 fluorescence intensity (a.u.).

As for “ATATATATATATATATATATATATATATATATGTATGTATCGGAGTCACCTAGTGCAG”, the binding signal was 10100 fluorescence intensity (a.u.).

As for “GATACCCTCGGCGGAGGAAAACGTTGGGTTGGGTCAATCACGGAGTCACCTAGTGCAG”, the binding signal is 11300 fluorescence intensity (a.u.).

As to “GTCGCGCCGCGCGCGGTTCCCTTTCACCCGCTCGGTCCAACGGAGTCACCTAGTGCAG”, the binding signal is 8640 fluorescence intensity (a.u.).

Consider “CGCACACCCAATGGATTCCTCATCTCGTGACCTCGCGCCACGGAGTCACCTAGTGCAG”, for which the binding signal was 10200 fluorescence intensity (a.u.).

With “GAGCATTTGGTGATCACATCCTCCTGCAAATGGGTTGATTCGGAGTCACCTAGTGCAG”, the binding signal was 8290 fluorescence intensity (a.u.).

Take “GGTGGTGGTGGCCTCTTCTTCCTCCTCCGCGGCCGGGGACCGGAGTCACCTAGTGCAG”: the binding signal was 15600 fluorescence intensity (a.u.).

On to “ACCTTTTTTCCGACCTTCTTTGTCAGGCCAAATGCAAAGTCGGAGTCACCTAGTGCAG”, for which the binding signal was 8670 fluorescence intensity (a.u.).

As for “CACACGACGTCCACCAACACCAAAGCCGCCGCTTGTTTTCCGGAGTCACCTAGTGCAG”, the binding signal was 9790 fluorescence intensity (a.u.).

As for “TGCAATAGCCTGGTGTCGATTTTATGGTCTTGTCGCTCAACGGAGTCACCTAGTGCAG”, the binding signal is 8120 fluorescence intensity (a.u.).

With “ACCATACATACTCACGTACAATTTTCTCAGTTAGCCCTGTCGGAGTCACCTAGTGCAG”, the binding signal is 11300 fluorescence intensity (a.u.).

For the sequence “AATTTTTACTCGTACTCTTAACTATCACACATATCTATAACGGAGTCACCTAGTGCAG”, the binding signal is 8200 fluorescence intensity (a.u.).

Regarding “GCAGCATTCAATCAGTCAACACAGGTGTTCTAGCCATATACGGAGTCACCTAGTGCAG”, the binding signal is 9400 fluorescence intensity (a.u.).

Regarding “TGCCATCTTTGTACTGTTCCAGTGTTTCTACTCCTCTTGCCGGAGTCACCTAGTGCAG”, the binding signal is 8090 fluorescence intensity (a.u.).

Consider “TTTTCCACATTAGTACTCTATACATATGTCAAACATTTAACGGAGTCACCTAGTGCAG”, for which the binding signal was 9080 fluorescence intensity (a.u.).

Turning to “GGGGATTGGGAGTTTACACGAGGGAATTGATGATGAGATTCGGAGTCACCTAGTGCAG”, the binding signal is 9070 fluorescence intensity (a.u.).

For the sequence “AATATTCTCCCGTCGAGATCCGTATATGCTGTTGCCTACTCGGAGTCACCTAGTGCAG”, the binding signal is 8600 fluorescence intensity (a.u.).

“GTGTATGGGGTCTGATTGCTTTGAGGCTTGCAGATGATGACGGAGTCACCTAGTGCAG”: the binding signal is 9770 fluorescence intensity (a.u.).

In the case of “GGGGCATGGAGAGGATAGCAATCTTGACCTTCGTTTTCTCCGGAGTCACCTAGTGCAG”, the binding signal was 8440 fluorescence intensity (a.u.).

Consider “ATTTGTTCCATTGCTTCTTCTCTTGATCACTTGCTACCTCCGGAGTCACCTAGTGCAG”, for which the binding signal is 11900 fluorescence intensity (a.u.).

In the case of “TTGCATCAGAGTTTCATCTCATCTATCGATCGGCTAATTTCGGAGTCACCTAGTGCAG”, the binding signal was 10300 fluorescence intensity (a.u.).

“GTCGCTGCTTCTCCGCCCGTCCGCTAGCTACTTTTCCACCCGGAGTCACCTAGTGCAG”: the binding signal is 11900 fluorescence intensity (a.u.).

Turning to “CACATGCTTATACCGTTCGTGCTGGAGTTCCTGATCGATGCGGAGTCACCTAGTGCAG”, the binding signal was 8070 fluorescence intensity (a.u.).

Take “CTGGTCCTTTATCTTTCAGTGCCATGTCAGTATCTTGTCACGGAGTCACCTAGTGCAG”: the binding signal was 8870 fluorescence intensity (a.u.).

In the case of “GGTCAGTTTGTTTCGTTGCAAGGATATTGACCCATCATTCCGGAGTCACCTAGTGCAG”, the binding signal is 9560 fluorescence intensity (a.u.).

On to “GATGTCCGCCGCCGCCGCCTCCGCCTCTGCCTCCTCCTTCCGGAGTCACCTAGTGCAG”, for which the binding signal is 8500 fluorescence intensity (a.u.).

As for “ACTGCTAGCTCCATCCATCTCCATCGAGATGTGTTGAATTCGGAGTCACCTAGTGCAG”, the binding signal is 8200 fluorescence intensity (a.u.).

Consider “TATGGTGCGCCCCACATGCCAGCCGATTTTCTTTCTTGCTCGGAGTCACCTAGTGCAG”, for which the binding signal was 9760 fluorescence intensity (a.u.).

“ATCATAGGGCCTGTTCACTTTAATGCAAAAAAAACCTTACCGGAGTCACCTAGTGCAG”: the binding signal is 8160 fluorescence intensity (a.u.).

As to “TCCACTCGCTCTAGTTTGCCTCGTCCCCGCCGCCACCACACGGAGTCACCTAGTGCAG”, the binding signal is 8760 fluorescence intensity (a.u.).

Regarding “CACCTGAACATTTTTGCTCCTGTTCCTTTCAGTCGCAACACGGAGTCACCTAGTGCAG”, the binding signal was 8500 fluorescence intensity (a.u.).

In the case of “GCTGAATGTTTGGTAGGTAGGTTGGCACCAGTACTTGGCCCGGAGTCACCTAGTGCAG”, the binding signal is 8390 fluorescence intensity (a.u.).

For the sequence “TCCATCCACTCTGCCACCGCCGCTGCCGCCACCATCCACTCGGAGTCACCTAGTGCAG”, the binding signal was 9700 fluorescence intensity (a.u.).

With “CTCTTTCCTGGCCCATCTGATTCCTCTCCCTTTTTCTGTGCGGAGTCACCTAGTGCAG”, the binding signal was 10800 fluorescence intensity (a.u.).

With “GCTCGATCTTTGACCAGCCAGTGGGGTTGGAGGAGGGAGGCGGAGTCACCTAGTGCAG”, the binding signal was 10400 fluorescence intensity (a.u.).

As to “CTCATTTCTCTGCAAGCTGGCCAGGGCGAGGCGGGAGGGCCGGAGTCACCTAGTGCAG”, the binding signal is 10800 fluorescence intensity (a.u.).

“GGGCGCGATGGGTTGGGGTGTGTTTCCGTGGATTGATGACCGGAGTCACCTAGTGCAG”: the binding signal is 21100 fluorescence intensity (a.u.).

Take “TATGTCCTTATTGGTATTCATTTCATGCTCAACCTGTTCGCGGAGTCACCTAGTGCAG”: the binding signal was 9360 fluorescence intensity (a.u.).

Consider “CTTTCTACTCTTCTCCAGGAATTGTTTTGGATCATAGTAGCGGAGTCACCTAGTGCAG”, for which the binding signal is 8170 fluorescence intensity (a.u.).

For the sequence “ATTTTCCCATGCTTGTAGTGGACCTTACCTCTAGCTGAGCCGGAGTCACCTAGTGCAG”, the binding signal is 8030 fluorescence intensity (a.u.).

As to “ATACTCGCTCCGTGTTTTAATATATGACGCTGTTGATTTTCGGAGTCACCTAGTGCAG”, the binding signal is 12700 fluorescence intensity (a.u.).
